The experiment has as its target ICP8-CTD WT (His-tagged entire C-terminal domain of ICP8, residues 1036-1196) (herpes simplex virus type 1 (HSV-1)) (UniProt P17470). Kind of experiment: label-free thermal shift (nanoDSF), dose series refitted with MoltenProt; 5 μM ICP8Δ60 preincubated with 10 to 100 μM CTD fragment (1:2 to 1:20 M ratio) for 3 h at room temperature; two-state reversible unfolding model; both purified. On the technique in general: Differential scanning fluorimetry follows unfolding on heating by fluorescence.

Amino acid sequences for entries named in this document (tags omitted). Residues count along the entry.
UniProt P17470, residues 1036-1196: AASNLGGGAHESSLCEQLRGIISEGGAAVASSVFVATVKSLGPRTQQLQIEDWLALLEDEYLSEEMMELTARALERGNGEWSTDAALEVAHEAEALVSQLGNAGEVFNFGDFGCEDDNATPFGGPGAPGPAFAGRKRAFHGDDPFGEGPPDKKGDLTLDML

Results are given in words; binding and its absence hold for the method and conditions named.

As for “ICP8-CTD WT (His-tagged entire C-terminal domain of ICP8, residues 1036-1196) (from UniProt P17470 1036-1196) (domain or fragment)”, the binding entry is “no binding (tested: 10 to 100 μM)”.

(Values after PMC12409425, “Two distinct protein-protein interfaces drive cooperative binding of the herpes simplex virus protein ICP8 to ssDNA, filament formation and annealing essential for viral replication” (The Journal of Biological Chemistry, 2025).)
